{
  "sequences": {"note": "Sequences of proteins named here, by UniProt entry; tags and fusion partners are left off. A change or cut given only in a name is not applied to a line headed by its entry.", "UniProt Q9UNA4": "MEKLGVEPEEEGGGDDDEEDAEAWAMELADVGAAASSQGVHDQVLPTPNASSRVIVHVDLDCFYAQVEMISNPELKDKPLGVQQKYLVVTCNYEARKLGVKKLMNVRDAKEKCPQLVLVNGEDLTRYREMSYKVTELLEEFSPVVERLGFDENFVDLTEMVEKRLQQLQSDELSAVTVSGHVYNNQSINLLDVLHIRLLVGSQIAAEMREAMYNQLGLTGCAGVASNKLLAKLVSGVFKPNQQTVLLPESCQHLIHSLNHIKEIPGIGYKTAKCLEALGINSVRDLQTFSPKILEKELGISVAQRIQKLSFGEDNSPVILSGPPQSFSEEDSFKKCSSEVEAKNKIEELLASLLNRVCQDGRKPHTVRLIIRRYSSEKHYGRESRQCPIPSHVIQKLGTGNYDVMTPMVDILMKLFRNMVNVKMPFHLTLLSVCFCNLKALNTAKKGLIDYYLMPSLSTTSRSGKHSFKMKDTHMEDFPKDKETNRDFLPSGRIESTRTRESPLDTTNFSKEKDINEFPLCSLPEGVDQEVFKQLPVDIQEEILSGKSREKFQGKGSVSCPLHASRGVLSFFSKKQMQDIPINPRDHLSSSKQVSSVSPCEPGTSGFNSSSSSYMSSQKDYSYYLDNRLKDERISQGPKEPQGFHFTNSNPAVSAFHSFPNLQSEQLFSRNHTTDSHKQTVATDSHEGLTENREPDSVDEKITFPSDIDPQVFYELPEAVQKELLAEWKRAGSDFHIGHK"},
  "source": "PubChem BioAssay AID588590",
  "about": "(National Center for Advancing Translational Sciences (NCATS), 2011)",
  "note": "The whole screen tested about 390,000 compounds, of which about 4,000 (1%) were called active. Inconclusive results, whose numbers are uncertain, are shown with a selection of clear calls. Calls come from the whole dose curve; as a rule, active = well fitted inhibition curve with a large enough effect; inconclusive = small, poorly fitted or top-dose-only effect, or another doubt; inactive = no such curve, though single readings can be large or run the other way. A potency beside an inconclusive call is a rough fit, not a confirmed value. Potency is the fitted concentration of half-maximal effect.",
  "data": [
    {"biological_target": "DNA polymerase iota (Homo sapiens) (UniProt Q9UNA4)", "experiment": "qHTS for Inhibitors of Polymerase Iota", "settings": "Pol iota fluorescent replication assay, 10 min; series mostly up to 115 µM", "in_short": "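Fluorescent replication assay read twice, at 0 min and 10 min after adding 50 nM (final) substrate. Enzyme (10 nM) and compounds were first incubated 15 min at room temperature; enzyme-free buffer wells were negative controls.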", "values": [
      {"smiles": "C=C(C)C(=O)Nc1cccc(C2=NOC3(C2)C[C@@H](C(N)=O)N(C(=O)/C=C/CC)C3)c1", "note": "(some centres not stated)", "Potency": "active: 15.8 µM"},
      {"smiles": "COc1cccc(CNC(=O)c2nn(-c3ccc(C)cc3)c(=O)c3c2c2ccccc2n3C)c1", "Potency": "inconclusive: 89.1 µM [inhibitor, partial curve, poor fit]"},
      {"smiles": "O=C(OCc1nc2ccsc2c(=O)[nH]1)c1ccc(Cl)nc1", "Potency": "inconclusive: 89.1 µM [inhibitor, partial curve, poor fit]"},
      {"smiles": "COc1ccc(Nc2nc(N)c3cc(OC)c(OC)cc3n2)cc1", "Potency": "inactive"},
      {"smiles": "COc1ccc(C2C(C#N)=C(N)Oc3n[nH]c(C)c32)cc1CSc1ccccn1", "note": "(configuration not stated)", "Potency": "inconclusive: 11.2 µM [inhibitor, partial curve, poor fit]"},
      {"smiles": "Fc1ccc(C2=CC(c3ccco3)n3nnnc3N2)cc1", "note": "(configuration not stated)", "Potency": "inactive"},
      {"smiles": "O=C1OC(c2ccc(F)cc2)=N/C1=C\\C=C/c1ccccc1", "Potency": "inconclusive: 79.4 µM [inhibitor, single point]"},
      {"smiles": "CCCCCCCCNC(=S)NCCN1CCCCC1", "Potency": "inconclusive: 12.6 µM [inhibitor, partial curve, poor fit]"},
      {"smiles": "CCCCc1ccc(N2C(=NC(=O)C3CCCO3)SC3CS(=O)(=O)CC32)cc1", "note": "(configuration not stated)", "Potency": "inconclusive: 10 µM [inhibitor, partial curve]"},
      {"smiles": "Cc1ccc2nc(N3C(=O)C(O)=C(C(=O)c4ccc(C)o4)C3c3ccc(O)cc3)sc2c1", "note": "(configuration not stated)", "Potency": "inconclusive: 22.4 µM [inhibitor, partial curve, poor fit]"},
      {"smiles": "Cc1ccc(NC(=O)c2oc3ccc(S(=O)(=O)N4CCOCC4)cc3c2C)c(C)c1", "Potency": "inconclusive: 89.1 µM [inhibitor, single point]"},
      {"smiles": "COc1ccc(C(=O)OCC(=O)Nc2sccc2C(N)=O)cc1[N+](=O)[O-]", "Potency": "inconclusive: 50.1 µM [inhibitor, single point]"},
      {"smiles": "Cc1cccnc1NC(=O)CCc1nnc2ccc(NCc3ccco3)nn12", "Potency": "inconclusive: 20 µM [inhibitor, partial curve]"},
      {"smiles": "Nc1cc(-c2ccncc2)c[nH]c1=O", "Potency": "active: 10 µM"},
      {"smiles": "O=C(/C=C/Nc1ccccc1O)c1ccco1", "Potency": "inconclusive: 79.4 µM [inhibitor, partial curve, poor fit]"},
      {"smiles": "COc1cc(/C=c2\\sc3nc(=O)c(-c4ccccc4)nn3c2=O)ccc1OCCC(C)C", "Potency": "inactive"},
      {"smiles": "CCc1nnc(NS(=O)(=O)c2ccc(NC(=S)Nc3ccc(F)cc3)cc2)s1", "Potency": "inactive"},
      {"smiles": "NC(=O)c1ccccc1NC(=O)CS(=O)(=O)Cc1ccccc1", "Potency": "inconclusive: 14.1 µM [inhibitor, partial curve, poor fit]"},
      {"smiles": "CCC(=O)c1ccc(OCC(O)CNCc2ccc(F)cc2)cc1", "note": "(configuration not stated)", "Potency": "inconclusive: 89.1 µM [inhibitor, single point]"},
      {"smiles": "O=C(CCn1c(=O)c2ccccc2n(Cc2cccc(F)c2)c1=O)NCc1ccc2c(c1)OCO2", "Potency": "inactive"},
      {"smiles": "c1ccc2c(c1)CCCc1cc(NCCN3CCOCC3)nnc1-2", "Potency": "inconclusive: 89.1 µM [inhibitor, single point]"},
      {"smiles": "COc1ccc2c(c1)c(C(=O)CN(C)C)c(C)n2C", "Potency": "inactive"},
      {"smiles": "COc1ccc2[nH]c(C(=O)O)c(CCNC(=O)/C=C/c3ccc(O)c(OC)c3)c2c1", "Potency": "inconclusive: 10 µM [inhibitor, partial curve, poor fit]"},
      {"smiles": "CC1=C(C(=O)OCc2ccccc2)C(c2ccc(Br)cc2)NC(=O)N1CCCCCC(=O)O", "note": "(configuration not stated)", "Potency": "inconclusive: 11.2 µM [inhibitor, partial curve, poor fit]"},
      {"smiles": "Cc1cc(C)nc(N/N=C/c2c(CO)cnc(C)c2O)n1", "Potency": "inconclusive: 15.8 µM [inhibitor, partial curve, poor fit]"},
      {"smiles": "CNC[C@H](CC1CCCCC1)NC[C@H](CO)NCCc1cccc(C(F)(F)F)c1", "Potency": "inconclusive: 15.8 µM [inhibitor, full curve, poor fit]"},
      {"smiles": "O=C(Nc1cccc([N+](=O)[O-])c1)c1cc2ccccc2cc1O", "Potency": "active: 44.7 µM"},
      {"smiles": "COc1ccc(-c2cc3nc(-c4ccccc4)cc(N4CCC(O)CC4)n3n2)cc1", "Potency": "inconclusive: 89.1 µM [inhibitor, single point]"},
      {"smiles": "CCC(CO)Oc1cc(NCc2ccc(Cl)cc2)c2ncn(C(C)C)c2c1", "note": "(configuration not stated)", "Potency": "inconclusive: 28.2 µM [inhibitor, single point]"},
      {"smiles": "O=C(COC(=O)C1CCN(c2ccc(C(F)(F)F)cn2)CC1)NC1CCCCC1", "Potency": "inactive"},
      {"smiles": "COc1ccccc1/C=C1\\SC(=S)N(CCC(=O)Nc2ccc(C(=O)O)c(O)c2)C1=O", "Potency": "inconclusive: 56.2 µM [inhibitor, partial curve, poor fit]"},
      {"smiles": "Cc1ccc2cccc(S(=O)(=O)N3CCN(c4ccccc4F)CC3)c2n1", "Potency": "inconclusive: 39.8 µM [inhibitor, full curve, poor fit]"},
      {"smiles": "Cc1ccc(-c2nn3c(=O)cc(CN4CCN(C(=O)Nc5cccc(C(F)(F)F)c5)CC4)nc3s2)cc1", "Potency": "inactive"},
      {"smiles": "C#CCOCCOCCOCCNc1nc(N2CCN(C(=O)CCCCCCCCCCNC(=O)[C@H]([C@@H](C)CC)n3cc(CCCCCN)nn3)CC2)nc(N2CCN(C(=O)CCCCCCCCCCNC(=O)[C@@H]([C@H](C)O)n3cc(C)nn3)CC2)n1", "Potency": "inconclusive: 15.8 µM [inhibitor, full curve, poor fit]"},
      {"smiles": "Clc1ccc(CSc2ncccn2)cc1", "Potency": "inconclusive: 3.98 µM [inhibitor, partial curve, poor fit]"},
      {"smiles": "COc1ccc(OC)c(C(=O)CSc2nccc(-c3ccc(Br)cc3)n2)c1", "Potency": "inconclusive: 79.4 µM [inhibitor, full curve]"},
      {"smiles": "COC(=O)c1ccc(CSc2nnc(CNC(=O)COc3ccc(Cl)cc3)o2)o1", "Potency": "inconclusive: 39.8 µM [inhibitor, single point]"},
      {"smiles": "Cc1ccc(C)c(N2CCN(C(=O)CCc3nc(-c4ccc(Br)cc4)no3)CC2)c1", "Potency": "inconclusive: 70.8 µM [inhibitor, partial curve, poor fit]"},
      {"smiles": "O=C(c1cc([N+](=O)[O-])[nH]n1)N1CCSCC1", "Potency": "inactive"},
      {"smiles": "COc1ccccc1CCNS(=O)(=O)c1ccc(C(=O)O)n1C", "Potency": "inconclusive: 89.1 µM [inhibitor, partial curve, poor fit]"},
      {"smiles": "CCOC(=O)C1CCCN(c2c(C(=O)c3ccccc3)cnc3ccc(F)cc23)C1", "note": "(configuration not stated)", "Potency": "inconclusive: 100 µM [inhibitor, single point]"},
      {"smiles": "Cc1ccccc1CS(=O)(=O)Cc1ccc(C(=O)NCCc2ccc(Cl)cc2)o1", "Potency": "inactive"},
      {"smiles": "COc1ccc2c(c1)c1c(c(=O)n(-c3ccc(OC)c(OC)c3)c(=O)n1Cc1ccc(F)cc1)n2C", "Potency": "inactive"},
      {"smiles": "COCCNC(=O)c1cc(-c2ccc(-c3ccccc3)cc2)nc2ccccc12", "Potency": "inconclusive: 14.1 µM [inhibitor, partial curve, poor fit]"},
      {"smiles": "COc1ccc(NC(=O)c2nnn(CC(=O)Nc3ccc(C)c(C)c3)c2N)cc1OC", "Potency": "inconclusive: 79.4 µM [inhibitor, single point]"},
      {"smiles": "COc1cccc(Cn2nnc(C(=O)NCc3ccc(Cl)cc3Cl)c2N)c1", "Potency": "inconclusive: 89.1 µM [inhibitor, partial curve]"},
      {"smiles": "CCOC(=O)c1c(C)[nH]c(C)c1C(=O)COC(=O)/C=C/c1ccccc1[N+](=O)[O-]", "Potency": "inactive"},
      {"smiles": "O=C(Nc1ccc(-c2nc3ccccc3[nH]2)cc1)c1cccc(N2C(=O)CCC2=O)c1", "Potency": "inconclusive: 112 µM [inhibitor, partial curve, poor fit]"},
      {"smiles": "Cc1cc(OCCN2CCC(Cc3ccccc3)CC2)ccc1[N+](=O)[O-]", "Potency": "inactive"},
      {"smiles": "CC(C)(C)c1ccc(-c2nnc(N)o2)cc1", "Potency": "inactive"},
      {"smiles": "COC(=O)C1=C[C@@H](C(=O)OC)[C@@H]2C3=C(C(=O)C2(C)C)[C@H](C)n2c(=O)n(C)c(=O)n2[C@@H]3C1", "Potency": "inconclusive: 89.1 µM [inhibitor, partial curve, poor fit]"},
      {"smiles": "O=C1CC(=O)N(c2cccc(F)c2)N1", "Potency": "inconclusive: 14.1 µM [inhibitor, partial curve, poor fit]"},
      {"smiles": "O=C(/C=C/c1ccco1)Nc1cccc2cccnc12", "Potency": "active: 6.31 µM"},
      {"smiles": "Cc1ccc2nc(COc3cccc(NC(=O)c4ccccc4Cl)c3)cc(=O)n2c1", "Potency": "inconclusive: 89.1 µM [inhibitor, single point]"},
      {"smiles": "CCC(C)Oc1ccc(/C=C/c2[nH]c(=O)[nH]c(=O)c2[N+](=O)[O-])cc1OC", "note": "(configuration not stated)", "Potency": "inconclusive: 25.1 µM [inhibitor, full curve, poor fit]"},
      {"smiles": "CCc1ccc(NC(=O)CN2C(=O)c3ccccc3Sc3ccc(C(=O)N4CCCC4)cc32)cc1", "Potency": "inconclusive: 63.1 µM [inhibitor, partial curve, poor fit]"},
      {"smiles": "CCOC(=O)c1cc2c(ccn2C)n1Cc1ccc(Cl)cc1", "Potency": "inconclusive: 17.8 µM [inhibitor, full curve, poor fit]"},
      {"smiles": "O=C(/C=C/c1ccccc1Cl)OCC(=O)c1ccc[nH]1", "Potency": "inconclusive: 56.2 µM [inhibitor, partial curve, poor fit]"},
      {"smiles": "Cc1ccc2c(c1)c1nc3ccccc3nc1n2CCN1CCOCC1", "Potency": "inconclusive: 12.6 µM [inhibitor, partial curve, poor fit]"},
      {"smiles": "Cc1ccc(OCCCCN2CCc3ccccc3C2)cc1", "Potency": "inconclusive: 79.4 µM [inhibitor, partial curve]"},
      {"smiles": "COc1cc(-c2c(C#N)c(N)nc3[nH]c(=S)[nH]c(=O)c23)ccc1O", "Potency": "inconclusive: 63.1 µM [inhibitor, single point]"},
      {"smiles": "N[C@@H](CO)c1nnc([C@H](CCC(=O)O)NC(=O)C2CCNCC2)o1", "Potency": "inconclusive: 35.5 µM [inhibitor, partial curve, poor fit]"}
    ]}
  ]
}
